Test results reported in article PMC7368857.
These are yes or no findings as the source states them, for the method shown. In cells and extracts the contact can be indirect. Some results given as binding are weak or reduced against the parent protein; the word gives no strength.

The chains behind the UniProt entries cited, without tags or fusion partners.
UniProt P08047: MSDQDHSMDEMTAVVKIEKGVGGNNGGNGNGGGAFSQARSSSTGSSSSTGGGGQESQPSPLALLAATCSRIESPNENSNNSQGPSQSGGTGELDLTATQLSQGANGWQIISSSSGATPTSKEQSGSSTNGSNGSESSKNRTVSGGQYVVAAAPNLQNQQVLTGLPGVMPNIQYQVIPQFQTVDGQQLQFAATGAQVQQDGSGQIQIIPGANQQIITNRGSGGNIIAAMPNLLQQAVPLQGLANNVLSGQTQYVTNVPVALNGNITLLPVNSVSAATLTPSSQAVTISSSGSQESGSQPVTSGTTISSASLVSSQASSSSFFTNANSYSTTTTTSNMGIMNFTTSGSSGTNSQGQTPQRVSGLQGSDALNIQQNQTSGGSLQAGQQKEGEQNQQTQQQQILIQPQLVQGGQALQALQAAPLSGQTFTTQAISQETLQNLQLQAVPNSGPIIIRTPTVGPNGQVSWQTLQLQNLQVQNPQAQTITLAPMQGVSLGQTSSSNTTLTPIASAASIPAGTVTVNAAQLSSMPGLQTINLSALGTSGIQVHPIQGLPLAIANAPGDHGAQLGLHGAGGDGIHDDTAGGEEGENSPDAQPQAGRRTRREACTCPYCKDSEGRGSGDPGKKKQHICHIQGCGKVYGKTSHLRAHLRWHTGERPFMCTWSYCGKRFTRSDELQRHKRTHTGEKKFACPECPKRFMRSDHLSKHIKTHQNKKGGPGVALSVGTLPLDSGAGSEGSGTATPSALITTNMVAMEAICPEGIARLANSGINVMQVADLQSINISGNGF
UniProt P51532: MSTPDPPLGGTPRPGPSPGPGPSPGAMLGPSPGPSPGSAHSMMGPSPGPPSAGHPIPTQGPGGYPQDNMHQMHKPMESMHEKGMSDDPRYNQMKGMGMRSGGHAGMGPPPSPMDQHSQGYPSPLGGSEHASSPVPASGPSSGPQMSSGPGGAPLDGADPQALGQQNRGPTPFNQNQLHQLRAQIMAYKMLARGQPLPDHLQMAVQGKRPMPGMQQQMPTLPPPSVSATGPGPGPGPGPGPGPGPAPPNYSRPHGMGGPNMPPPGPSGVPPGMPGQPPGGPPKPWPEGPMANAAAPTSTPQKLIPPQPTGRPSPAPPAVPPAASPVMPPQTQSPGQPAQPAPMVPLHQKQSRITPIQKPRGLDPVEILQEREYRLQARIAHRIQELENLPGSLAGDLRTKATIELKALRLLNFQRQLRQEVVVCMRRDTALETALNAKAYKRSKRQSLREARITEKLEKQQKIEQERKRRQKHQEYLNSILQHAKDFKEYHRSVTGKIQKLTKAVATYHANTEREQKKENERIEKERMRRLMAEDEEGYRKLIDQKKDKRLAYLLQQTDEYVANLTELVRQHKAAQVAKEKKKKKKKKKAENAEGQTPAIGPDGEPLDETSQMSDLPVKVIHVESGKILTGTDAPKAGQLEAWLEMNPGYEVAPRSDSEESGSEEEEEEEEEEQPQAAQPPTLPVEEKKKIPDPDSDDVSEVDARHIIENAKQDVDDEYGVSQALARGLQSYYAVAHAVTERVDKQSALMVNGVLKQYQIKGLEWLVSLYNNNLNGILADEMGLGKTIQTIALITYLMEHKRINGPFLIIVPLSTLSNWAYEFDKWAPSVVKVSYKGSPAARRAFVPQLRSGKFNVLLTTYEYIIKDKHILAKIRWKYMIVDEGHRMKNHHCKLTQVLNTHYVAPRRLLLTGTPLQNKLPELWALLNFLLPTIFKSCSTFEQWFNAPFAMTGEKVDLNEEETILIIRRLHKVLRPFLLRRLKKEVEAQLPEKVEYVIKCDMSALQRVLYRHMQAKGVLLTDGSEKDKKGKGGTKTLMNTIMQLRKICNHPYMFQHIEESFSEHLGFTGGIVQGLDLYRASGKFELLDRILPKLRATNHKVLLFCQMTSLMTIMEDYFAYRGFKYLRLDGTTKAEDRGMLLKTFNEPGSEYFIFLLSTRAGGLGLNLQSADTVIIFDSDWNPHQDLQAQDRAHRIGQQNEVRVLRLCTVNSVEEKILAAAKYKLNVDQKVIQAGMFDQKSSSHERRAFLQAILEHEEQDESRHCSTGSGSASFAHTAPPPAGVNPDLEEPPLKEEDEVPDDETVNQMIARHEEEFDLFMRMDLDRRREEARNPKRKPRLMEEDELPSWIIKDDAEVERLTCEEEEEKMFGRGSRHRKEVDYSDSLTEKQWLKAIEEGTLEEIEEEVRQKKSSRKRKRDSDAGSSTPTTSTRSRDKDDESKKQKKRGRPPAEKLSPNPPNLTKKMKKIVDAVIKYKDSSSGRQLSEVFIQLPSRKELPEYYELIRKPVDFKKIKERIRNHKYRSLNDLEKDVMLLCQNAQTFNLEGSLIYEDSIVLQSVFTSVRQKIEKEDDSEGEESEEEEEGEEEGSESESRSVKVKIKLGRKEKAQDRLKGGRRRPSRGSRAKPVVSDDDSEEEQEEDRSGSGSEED

Assays:
FLAG-tagged Sp1 = FLAG-tagged Sp1 (UniProt P08047); test: co-IP; nuclear lysates from HEK293 cells, treated with DNase I at 37 °C for 30 min before immunoprecipitation; specific antibodies with Protein A/G-plus agarose, or FLAG-conjugated M2 beads eluted with 3X FLAG peptide; Western blot
[1] = molecular target: endogenous Sp1 (human (endogenous in EAhy926)) (UniProt P08047); test: co-IP; nuclear lysates from EAhy926 cells (endogenous proteins), treated with DNase I at 37 °C for 30 min before immunoprecipitation; specific antibodies or pre-immune IgG with Protein A/G-plus agarose; Western blot

binding (FLAG-tagged Sp1)	binding [1]	Substance
binds		Myc-tagged BRG1 (Brahma-related gene 1) (from UniProt P51532 1-1647)
	binds	endogenous BRG1 (from UniProt P51532 1-1647)
